According to PubChem BioAssay AID1307 (SRMLSC, 2008):
In all, about 1,200 compounds went through this assay and fewer than 10 were called active.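 How the source made its calls: active means inhibition reaching a set limit at one or more tested concentrations; inactive means inhibition under that limit at every dose.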 The list shows a part of the results. Entries with a potency or affinity are not part of this list.

Assay: yeast RAM network inhibitors, dose response, S. cerevisiae (AID 1307);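 further: 0% = DMSO vehicle wells and 100% = 10 µM 1-NA-PP1 control; higher inhibition means more yeast growth since RAM block rescues cells from 5-FOA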
Conditions: S. cerevisiae RAM network URA3 reporter, 5-FOA growth OD615, stronger effect = higher value, yeast express analog-sensitive mutant Cbk1 kinase; at 100 µM unless noted

Max inhibition, inactive:
CCc1ccc(OCC(=O)N2c3ccccc3CCc3ccccc32)cc1 2.64% [at 3.125 µM]
O=C(Nc1ccc(F)cc1)c1sccc1SCc1cccc(C(F)(F)F)c1 2.84% [at 1.563 µM]
CCCNS(=O)(=O)c1ccc(CCC(=O)Nc2cc(Cl)ccc2Oc2ccccc2)cc1 1.73%
CCC(C(=O)Nc1ccsc1C(=O)OC)c1ccccc1 (configuration not stated) 2.46% [at 0.391 µM]
N#CC(c1ccc(F)cc1)c1ccc(C(=O)c2ccccc2)cc1 (configuration not stated) 3.72% [at 50 µM]
CN(C[C@H](Cc1ccccc1)N(C[C@H](Cc1ccccc1)N(CCC(C)(C)C)N=O)N=O)N=O 2.96% [at 1.563 µM]
CC(C)(C)NC(=O)c1ccc(NC(=O)CSc2ccccc2)cc1 3.2% [at 1.563 µM]
Cc1ccc(-n2ncc3c(=O)[nH]c(SCC(=O)N4CCCc5ccccc54)nc32)cc1 7.61%
Nc1nn2c(-c3ccccc3)cc(=O)[nH]c2c1N=Nc1ccc(Br)cc1 1.99% [at 6.25 µM]
CCC(C)NC(=O)c1ccccc1NC(=O)c1ccc(CSc2ccccc2)cc1 (configuration not stated) 2.42%
FC(F)Sc1ccc(NC(=S)NC(c2ccccc2)c2ccccc2)cc1 4.2% [at 0.196 µM]
O=C(NC(=S)N(Cc1ccccc1)Cc1ccccc1)c1ccccc1F 2.14% [at 3.125 µM]
COc1ccc(CCN2C(=O)/C(=C\c3ccco3)SC2=S)cc1OC 7.96%
CCN(CC)S(=O)(=O)c1cccc(C(=O)OCC(=O)c2ccc3c(c2)OCCO3)c1 3.81% [at 6.25 µM]
CCOc1cc(C2NN=C(c3ccccc3)S2)ccc1OCc1ccccc1Cl (configuration not stated) 3.36% [at 50 µM]
CCCCCCn1c(=O)c(C(=O)N/N=C/c2cccc(F)c2)c(O)c2ccccc21 6.08% [at 6.25 µM]
CSc1ccc(/C=C/C(=O)c2ccc(NC(=O)Cc3ccccc3)cc2)cc1 7.56%
COCCCNc1nc(SCc2ccccc2)nc2sc3c(c12)CCC3 4.5% [at 50 µM]
O=C(C1=C[C@H](c2csc3ccccc23)C[C@H](OCc2ccc(CO)cc2)O1)N1CCOCC1 2.48% [at 0.391 µM]
CC(C)OCCCNC(=O)C(NS(=O)(=O)c1ccc2c(c1)c(=O)n(C)c(=O)n2C)c1ccccc1 (configuration not stated) 2.24%
CCCC1S/C(=N/N=C/c2ccc(OC)cc2)N(Cc2ccc(OC)cc2)C1=O (configuration not stated) 7.41%
C=CCN1C(=O)/C(=C/c2ccc(OC(C)=O)c(OCC)c2[N+](=O)[O-])SC1=S 2.43% [at 50 µM]
CCCCSc1nc(SCC(=O)NCc2ccco2)c2c3c(sc2n1)COC(C)(CC)C3 (configuration not stated) 8.99% [at 50 µM]
CCn1c(CCNC(=O)c2ccc(Cl)c(Cl)c2)nnc1SCCOc1ccc(OC)cc1 3.23%
Cc1cccc(CSc2nc3sc(C)c(C)c3c(=O)n2Cc2ccco2)c1 5.75% [at 25 µM]
CCOC(=O)CSc1nc(-c2ccccc2)nc2ccc(F)cc12 6.49%
Cn1c(=O)c2c(ncn2CC(=O)OCC(=O)NC(c2ccccc2)c2ccccc2)n(C)c1=O 9.47% [at 50 µM]
CCOC(=O)c1sc(NC(=O)CCCn2nc([N+](=O)[O-])cc2C)c(C(=O)OCC)c1C 4.45% [at 0.782 µM]
Cc1nn(CCc2nn[nH]n2)c2nc(-c3ccc(C4CCCCC4)cc3)cc(C(F)(F)F)c12 8.89%
CCCOc1ccc(/C=C2\SC(=S)N(CC3CCCO3)C2=O)cc1 (configuration not stated) 5.7% [at 50 µM]
COc1ccc(Cl)cc1NC(=O)NC(C)C(C)(C)C (configuration not stated) 3.94% [at 25 µM]
CCCc1nn(C)c(C(=O)Nc2ccc(C(C)(C)C)cc2)c1Cl 3.4%
CCCCOc1nc2ccccc2nc1C(C#N)C(=O)NC1CCCCC1 (configuration not stated) 4.45%
Cc1cc(NC(=O)CSc2nc3ccsc3c(=O)n2Cc2ccccn2)n[nH]1 2.41% [at 12.5 µM]
C=CCOc1cccc(/C=C2\C(=O)N(Cc3ccc(C)cc3)C(C)=C2C(=O)OC)c1 6.85%
CCC1C/C(=C/c2cccs2)C(=O)/C(=C/c2cccs2)C1 (configuration not stated) 6.84% [at 25 µM]
CCCCCCN(C(=O)CCCCCN1C(=O)NC(c2ccc(-c3ccccc3)cc2)C(C(=O)OCc2ccccc2)=C1C)C(C)C(=O)NCCCC (configuration not stated) 4.59%
CC(=O)NCCn1c(SCc2cccc([N+](=O)[O-])c2)nc2ccccc2c1=O 4.57%
Cc1ccc(Oc2ccc(NC(=O)CCC(=O)OCC(=O)c3cccs3)cc2)cc1C 2.21% [at 12.5 µM]
Clc1ccccc1CSc1nnc(-c2ccco2)c(-c2ccco2)n1 10.5%
Cc1cccc(NC(=O)CCC(=O)OCC(=O)c2ccc(Oc3ccc([N+](=O)[O-])cc3)cc2)c1 10.3% [at 50 µM]
Cc1[nH]n(-c2ccccc2)c(=O)c1N=Nc1ccccc1 2.67% [at 0.196 µM]
O=C(N=Nc1c(O)n(C2OC(=O)c3ccccc32)c2ccccc12)c1ccc(O)cc1 (configuration not stated) 6.24%
COc1ccc(-c2ccc(SCC(=O)NCc3ccc4c(c3)OCO4)nn2)cc1OC 9.68%
CC(=O)c1ccc(NC(=S)NC2CCCC(C)C2C)cc1 (configuration not stated) 3.65% [at 0.196 µM]
COc1ccc(OCCNC(=O)c2cccc(Oc3ccc(C(F)(F)F)cc3[N+](=O)[O-])c2)cc1 4.55% [at 25 µM]
COc1ccc(NC(=O)CSc2nc3ccccc3c(=O)n2CCNC(C)=O)c(OC)c1 2.13% [at 1.563 µM]
CN(c1ccc(C(=O)NCCSCc2ccc(Cl)cc2)cc1)S(=O)(=O)c1ccccc1 3.48% [at 25 µM]
COC(=O)CCCCCN1C(=O)NC(c2ccc(-c3ccccc3)cc2)C(C(=O)OCc2ccccc2)=C1C (configuration not stated) 4.68% [at 50 µM]
COc1cccc(-c2nnc(SCC(=O)Nc3ccc(OC)c(OC)c3)n2N)c1 6.24%
CCC(=O)Oc1ccc(C(=O)Nc2cccc(C(=O)c3ccccc3)c2)cc1 3.36% [at 0.196 µM]
Cc1oc(-c2cc(Cl)cc(Cl)c2)cc1C(=O)NCCc1ccccc1 4.69% [at 50 µM]
CC(C)OC(=O)c1ccc(COC(=O)c2cccc(-c3nnc(-c4ccccc4)o3)c2)cc1 3.36% [at 25 µM]
CN(C)S(=O)(=O)c1ccc2[nH]cc(/C=C/c3nc4ccccc4c(=O)n3-c3ccccc3)c2c1 10.9%
CCOC(=O)CSc1nc2ccccc2c(=O)n1C1CCCC1 2.91% [at 12.5 µM]
CCCCCc1c2c(cc(O)c1C(=O)O)OC(=O)c1c(cc(OC)cc1C(=O)CCCC)O2 6.94%
COc1ccc(CC(=O)Nc2cc3oc4ccccc4c3cc2OC)cc1 3.11% [at 1.563 µM]
O=C(CSc1nc2cc(Cl)ccc2s1)N1CCCc2ccccc21 2.81%
O=C(CNC(=S)N(Cc1ccccc1)Cc1ccccc1F)NCCc1ccc(Cl)cc1 3.65%
CCOc1ccccc1NC(=O)c1ccccc1-c1nc(-c2ccccc2)no1 8.12%
COc1ccc(N(CC(=O)NCc2ccc(C)cc2)S(=O)(=O)c2c(C)nn(C)c2C)cc1 4.1%
Cc1ccc(NC(=O)COc2ccc(CCO)cc2-n2nc3ccccc3n2)cc1C 11.1%
O=C(COC(=O)c1ccccc1Nc1ccc(SC(F)F)cc1)NC1CC1 9.6%
O=[N+]([O-])c1ccc2oc(-c3cccc(O)c3)nc2c1 9.8%
CCC(C)NS(=O)(=O)c1ccc(S(=O)(=O)N(CCc2ccc(OC)c(OC)c2)Cc2cccs2)cc1 (configuration not stated) 1.46% [at 3.125 µM]
COc1ccc(N(CC(=O)NCCSCc2ccco2)S(=O)(=O)c2ccc(C)cc2)cc1 4.74% [at 50 µM]
Cc1ccc(-c2cccc(OC(=O)c3ccccc3F)c2)cc1 2.7% [at 6.25 µM]
N#C/C(=C\c1cn(CCOc2ccccc2)c2ccccc12)C(=O)NCC1CCCO1 (configuration not stated) 2.19% [at 0.196 µM]
CCN(CC)S(=O)(=O)c1ccc(NC(=O)COC(=O)c2ccc(Br)o2)cc1 3.64% [at 50 µM]
CCCCc1ccc(/C=C2\C(=O)c3ccccc3C(O)=C2C(=O)OCC)cc1 7.44%
COc1ccc(S(=O)(=O)N(Cc2ccccc2)Cc2nc(-c3ccccc3)no2)cc1 1.63% [at 25 µM]
CN(C)S(=O)(=O)c1cc(NC(=O)COC(=O)Cc2ccc(Br)cc2)ccc1Cl 1.06%
CCCCn1c(=O)c(CCC(=O)OC(C)C(=O)Nc2cccc(Cl)c2Cl)nc2ccccc21 (configuration not stated) 1.43% [at 6.25 µM]
O=C(CN(Cc1cccs1)S(=O)(=O)c1ccc(S(=O)(=O)NC2CCCCC2)cc1)Nc1ccccc1 3.89% [at 0.196 µM]
Cc1ccc(Cl)cc1N1CCN(S(=O)(=O)c2ccc3[nH]c(=O)c(=O)[nH]c3c2)CC1 4.39%
COc1ccccc1NC(=O)c1ccc(NC(=O)COC(=O)CCC2CCCC2)cc1 3.54%
COc1ccccc1-c1nc(C#N)c(N2CCC(Cc3ccccc3)CC2)o1 5.54%

Two records drawn at random from the list so far:
Max inhibition, inactive:
Cc1ccc(Cl)cc1N1CCN(S(=O)(=O)c2ccc3[nH]c(=O)c(=O)[nH]c3c2)CC1 4.39%
COc1ccc(N(CC(=O)NCc2ccc(C)cc2)S(=O)(=O)c2c(C)nn(C)c2C)cc1 4.1%

Reprinted from above (2 entries):
Max inhibition, inactive:
CCOC(=O)CSc1nc2ccccc2c(=O)n1C1CCCC1 2.91% [at 12.5 µM]
CCCCCc1c2c(cc(O)c1C(=O)O)OC(=O)c1c(cc(OC)cc1C(=O)CCCC)O2 6.94%

Sorted by length of the SMILES (high to low): 3 of the compounds above.
Max inhibition, inactive:
CCC(C)NS(=O)(=O)c1ccc(S(=O)(=O)N(CCc2ccc(OC)c(OC)c2)Cc2cccs2)cc1 (configuration not stated) 1.46% [at 3.125 µM]
CCCCc1ccc(/C=C2\C(=O)c3ccccc3C(O)=C2C(=O)OCC)cc1 7.44%
CSc1ccc(/C=C/C(=O)c2ccc(NC(=O)Cc3ccccc3)cc2)cc1 7.56%
